PubChem BioAssay AID686937 | Drosophila RNAi Screening Center, 2013
The deposit covers about 23,000 reagents; this is an unselected part of those that have a named target and a result. 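Reduced-secretion tags in replicate 1 do not always agree with the z-scores; no criterion for assigning the tags was given.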 Names joined by + are all predicted targets of the reagent. Further read-outs or replicates are left out here. The record does not give: the amount of reagent.

Assay: 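Genes in the fly needed for secretion of protein constitutively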 (primary screen)
System: Drosophila S2 cells expressing secreted horseradish peroxidase
Reagent: long dsRNA against Drosophila genes
Duration: about 5.5 days (5 days dsRNA, then 12 h reporter induction)
Conditions: reporter expression induced after 5 days of dsRNA, read 12 h later; inducer not stated
Read-out: 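Chemiluminescent measurement of peroxidase in the medium 12 h after reporter induction, following 5 days of dsRNA, given as a z-score per plate; higher means more secretion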
Direction: z-score: higher = more reporter secreted into medium

The first 6 entries, ahead of the listing:
gene,dsRNA,"z-score, replicate 1","z-score, replicate 2","z-score, replicate 3","z-score, replicate 4"
CG11110,DRSC06037,0.38,0.42,,
CG33307,DRSC01349,-0.51,-0.09,,
CG42758,DRSC10021,0.28,0.21,,
CG42820,DRSC02265,0.79,0.53,,
Unc-115b + p24-2,DRSC16492,-0.34,-0.22,,
heph (hephaestus),DRSC14082,0.16,0.52,,

Main list, from the start:
gene,dsRNA,"z-score, replicate 1","z-score, replicate 2","z-score, replicate 3","z-score, replicate 4"
CG11110,DRSC06037,0.38,0.42,,
CG33307,DRSC01349,-0.51,-0.09,,
CG42758,DRSC10021,0.28,0.21,,
CG42820,DRSC02265,0.79,0.53,,
Unc-115b + p24-2,DRSC16492,-0.34,-0.22,,
heph (hephaestus),DRSC14082,0.16,0.52,,
heph (hephaestus),DRSC14085,0.26,0.4,,
heph (hephaestus),DRSC15436,0.25,-0.08,,
heph (hephaestus),DRSC16783,0.26,0.21,,
CG15170,DRSC02471,0.05,0.12,,
RpS8 (Ribosomal protein S8),DRSC16318,-3.31,-2.25,,
RPA2 (Replication protein A2),DRSC03184,0.2,0.16,,
CG1806,DRSC19787,0.16,0.44,,
otk2 (off-track2),DRSC07303,0.31,0.31,,
pain (painless),DRSC04273,0.24,0.31,,
CG11755,DRSC14374,0.32,0.45,,
FAM21 (Family with sequence similarity 21),DRSC06623,0.24,0.35,,
CG30283,DRSC04071,0.19,0.17,,
Tm1 (Tropomyosin 1),DRSC13082,0.09,-0.07,,
Tm1 (Tropomyosin 1),DRSC13083,0.24,0.4,0.55,0.03
Tm1 (Tropomyosin 1),DRSC16886,0.04,0.17,,
upd2 (unpaired 2),DRSC19969,0.38,0.56,-0.56,-0.44
CG5790,DRSC02896,0.03,0.21,,
CG6788 + CR32496,DRSC22043,0.02,0.1,,
Cdc2rk (Cdc2-related kinase),DRSC07590,0.17,0.07,,
Obp83ef (Odorant-binding protein 83ef),DRSC12268,0,0.27,,
CG17186,DRSC15180,0.27,0.49,,
Gr93a (Gustatory receptor 93a),DRSC14593,0.26,0.13,,
Mrp5 (Multidrug resistance protein 5),DRSC15597,0.42,0.43,,
Mrp5 (Multidrug resistance protein 5),DRSC15598,0.43,0.62,,
BCL7-like,DRSC17729,0.27,0.26,,
CG15202,DRSC19649,0.22,0.53,,
LysB (Lysozyme B),DRSC08673,0.2,0.34,,
CG14684,DRSC14907,0.4,0.45,,
Mt2 (Methyltransferase 2),DRSC03374,0.2,0.42,,
Pp1-87B (Protein phosphatase 1 at 87B),DRSC16794,-0.37,-0.89,,
CG2617,DRSC02712,0.35,0.47,,
mask (multiple ankyrin repeats single KH domain),DRSC15370,-0.33,-1.21,,
mask (multiple ankyrin repeats single KH domain),DRSC16005,-0.69,-0.31,,
mask (multiple ankyrin repeats single KH domain),DRSC16018,-1.1,-1.12,,
Dsp1 (Dorsal switch protein 1),DRSC20315,-8.77,-5.28,,
CG15728,DRSC19694,0.47,0.58,,
CG15728,DRSC22868,0.56,0.75,,
CG31832,DRSC22067,0.01,0.27,,
TfIIA-S (Transcription-factor-IIA-S),DRSC16883,-0.77,-0.48,,
CG3594,DRSC04393,0.12,0.22,,
CG3594,DRSC21959,0.31,0.9,,
NimB2 (Nimrod B2),DRSC22645,0.23,0.19,,
CG34296,DRSC13961,-0.95,-0.41,,
"DCTN2-p50 (Dynactin 2, p50 subunit)",DRSC07132,0.22,0.29,,
Nca (Neurocalcin),DRSC11233,0.31,0.61,,
r + CG13012,DRSC19531,-0.46,0.19,,
RanBP3 (Ran binding protein 3),DRSC14217,-0.22,-0.39,,
CG14329,DRSC14808,-0.85,-0.28,,
CG34168,DRSC01938,-0.39,0.24,,
bbx + waw,DRSC20575,0.43,0.56,,
bbx + waw,DRSC20589,0.15,0.17,,
